Results deposited as PubChem BioAssay AID1259405 (NCATS, 2018)

Aim: 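Knock-downs that lift recombinant protein yield in hamster ovary cells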 (primary screen)
Cells: Chinese hamster CHO-K1 ovary cells with stable secreted eGFP expression
Knock-down reagent: single siRNA against mouse genes, 0.8 pmol siRNA per well (2 µl of 400 nM stock)
Timing: 3 days
Measured: 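Per-well intracellular GFP measured by laser scanning cytometry, plus viability from ATP luminescence, each relative to plate median of non-targeting control wells, in %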
Reading the numbers: GFP, % of control: higher = more GFP per well, higher productivity; viability (ATP), % of control: higher = more viable cells (more ATP)
Call rule: 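a knock-down is called active if GFP reaches 120% or more of non-targeting control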
The deposit covers about 50,000 reagents; shown is an unselected part. About 4,000 of all reagents (8%) count as active. 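Mouse siRNA library applied to hamster cells; one well for each siRNA.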 Unmarked entries are inactive. The numbers tell different reagents against one gene apart.

With Thrb (thyroid hormone receptor beta) #1, what does the deposit list?
GFP, % of control: 85.1; viability (ATP), % of control: 70.8

How did the screen score Thrb (thyroid hormone receptor beta) #2?
GFP, % of control: 70.1; viability (ATP), % of control: 67.5

What is on record for Thrb (thyroid hormone receptor beta) #3?
GFP, % of control: 98.9; viability (ATP), % of control: 93.7

For A730036I17Rik (RIKEN cDNA A730036I17 gene) #1, how do the results read?
GFP, % of control: 34.8; viability (ATP), % of control: 64.8

What did the screen give for A730036I17Rik (RIKEN cDNA A730036I17 gene) #2?
GFP, % of control: 29.7; viability (ATP), % of control: 36.4

How did the screen score A730036I17Rik (RIKEN cDNA A730036I17 gene) #3?
GFP, % of control: 76.3; viability (ATP), % of control: 87.5

For Srprb (signal recognition particle receptor, B subunit) #1, what does the deposit list?
GFP, % of control: 45.5; viability (ATP), % of control: 53.2

For Srprb (signal recognition particle receptor, B subunit) #2, what does the deposit list?
GFP, % of control: 75.2; viability (ATP), % of control: 73.3

Which result is listed for Srprb (signal recognition particle receptor, B subunit) #3?
GFP, % of control: 134 (active); viability (ATP), % of control: 143

What is on record for Ralb (Ras like proto-oncogene B) #1?
GFP, % of control: 46; viability (ATP), % of control: 61.8

How did the screen score Ralb (Ras like proto-oncogene B) #2?
GFP, % of control: 130 (active); viability (ATP), % of control: 118

What is on record for Ralb (Ras like proto-oncogene B) #3?
GFP, % of control: 74.3; viability (ATP), % of control: 62.9

For Or11g2 (olfactory receptor family 11 subfamily G member 2) #1, what does the deposit list?
GFP, % of control: 210 (active); viability (ATP), % of control: 113

For Or11g2 (olfactory receptor family 11 subfamily G member 2) #2, how do the results read?
GFP, % of control: 159 (active); viability (ATP), % of control: 100

What is on record for Or11g2 (olfactory receptor family 11 subfamily G member 2) #3?
GFP, % of control: 79.6; viability (ATP), % of control: 79.7

With Cpne6 (copine VI) #1, how do the results read?
GFP, % of control: 91.4; viability (ATP), % of control: 106

What did the screen give for Cpne6 (copine VI) #2?
GFP, % of control: 87.5; viability (ATP), % of control: 59

With Cpne6 (copine VI) #3, what does the deposit list?
GFP, % of control: 160 (active); viability (ATP), % of control: 84.1

For Lrrc8b (leucine rich repeat containing 8 family, member B) #1, what does the deposit list?
GFP, % of control: 168 (active); viability (ATP), % of control: 65.1

With Lrrc8b (leucine rich repeat containing 8 family, member B) #2, what does the deposit list?
GFP, % of control: 53.5; viability (ATP), % of control: 78.3

What is on record for Lrrc8b (leucine rich repeat containing 8 family, member B) #3?
GFP, % of control: 69.6; viability (ATP), % of control: 59.9

With Lrrc8b (leucine rich repeat containing 8 family, member B) #4, what was measured?
GFP, % of control: 114; viability (ATP), % of control: 91.6

With Lrrc8b (leucine rich repeat containing 8 family, member B) #5, how do the results read?
GFP, % of control: 126 (active); viability (ATP), % of control: 71.1

How did the screen score Lrrc8b (leucine rich repeat containing 8 family, member B) #6?
GFP, % of control: 100; viability (ATP), % of control: 74

What did the screen give for Krtcap3 (keratinocyte associated protein 3) #1?
GFP, % of control: 44; viability (ATP), % of control: 39.9

How did the screen score Krtcap3 (keratinocyte associated protein 3) #2?
GFP, % of control: 67.6; viability (ATP), % of control: 31.9

With Krtcap3 (keratinocyte associated protein 3) #3, what was measured?
GFP, % of control: 76.6; viability (ATP), % of control: 76.9

What is on record for Rtp4 (receptor transporter protein 4) #1?
GFP, % of control: 86.9; viability (ATP), % of control: 74.9

What did the screen give for Rtp4 (receptor transporter protein 4) #2?
GFP, % of control: 70.2; viability (ATP), % of control: 95.5

For Rtp4 (receptor transporter protein 4) #3, how do the results read?
GFP, % of control: 98.8; viability (ATP), % of control: 126

With Ube2j1 (ubiquitin-conjugating enzyme E2J 1) #1, how do the results read?
GFP, % of control: 63; viability (ATP), % of control: 65.7

With Ube2j1 (ubiquitin-conjugating enzyme E2J 1) #2, what does the deposit list?
GFP, % of control: 108; viability (ATP), % of control: 120

What did the screen give for Ube2j1 (ubiquitin-conjugating enzyme E2J 1) #3?
GFP, % of control: 46.7; viability (ATP), % of control: 80.1

What did the screen give for Hdac6 (histone deacetylase 6) #1?
GFP, % of control: 66.7; viability (ATP), % of control: 77.5

What is on record for Hdac6 (histone deacetylase 6) #2?
GFP, % of control: 72.4; viability (ATP), % of control: 74

What did the screen give for Traf1 (TNF receptor-associated factor 1) #1?
GFP, % of control: 71.5; viability (ATP), % of control: 77.9

For Traf1 (TNF receptor-associated factor 1) #2, what was measured?
GFP, % of control: 70.6; viability (ATP), % of control: 51.5

Which result is listed for Traf1 (TNF receptor-associated factor 1) #3?
GFP, % of control: 48.5; viability (ATP), % of control: 53.5

For Dennd6a (DENN domain containing 6A) #1, what was measured?
GFP, % of control: 72.9; viability (ATP), % of control: 74

What did the screen give for Dennd6a (DENN domain containing 6A) #2?
GFP, % of control: 46.8; viability (ATP), % of control: 26.5

With Dennd6a (DENN domain containing 6A) #3, how do the results read?
GFP, % of control: 48.1; viability (ATP), % of control: 71.3

Already shown: entries from further up.
Rtp4 (receptor transporter protein 4) #1: GFP, % of control = 86.9; viability (ATP), % of control = 74.9
Rtp4 (receptor transporter protein 4) #2: GFP, % of control = 70.2; viability (ATP), % of control = 95.5
Rtp4 (receptor transporter protein 4) #3: GFP, % of control = 98.8; viability (ATP), % of control = 126
Ube2j1 (ubiquitin-conjugating enzyme E2J 1) #1: GFP, % of control = 63; viability (ATP), % of control = 65.7
Ube2j1 (ubiquitin-conjugating enzyme E2J 1) #2: GFP, % of control = 108; viability (ATP), % of control = 120
